Assay results: patent US20250073680A1, “METHOD OF REGENERATING BIS(IMINOGUANIDINE) CARBON DIOXIDE SORBENTS FROM CARBONATE OR BICARBONATE SALT THEREOF” (UT-Battelle, LLC, priority 2023, published 2025)

Key:
[1] = Direct steam stripping regeneration in DSR reactor; details: for mass loss after full regeneration: fully regenerated; for regeneration rate, direct steam vs conductive heating: times faster with steam (times longer/slower with conductive heating); for time for regeneration by direct steam: 10 g, low-temperature steam 100 C; for estimated concentration of regenerated solution: liquid condensate after steam stripping (9.2 mL for MGBIG, 9.6 mL for GBIG)
[2] = Conductive/convection heating regeneration without steam (oven or reactor baseline); details: for time for full regeneration by conductive heating: 10 g
[3] = Initial carbon content by total inorganic carbon analyzer; format: physicochemical
[4] = CO2 desorption by heating solid within water in a conventional oven
[5] = Exp #2: 5 g, 30 min, water 85 ml, reactor/steam 100/100 C
[6] = Exp #3: 3 g, 30 min, water 10 ml, reactor/steam 96/100 C
[7] = Exp #4: 6 g, 30 min, water 10 ml, reactor/steam 95/100 C
[8] = Exp #5: 10 g, 30 min, water 10 ml, reactor/steam 80/100 C, drain valve open
[9] = Exp #6: 10 g, 20 min, water 115 ml, reactor/steam 88/100 C (no insulation), drain valve open
[10] = 10 g within 30 min, direct steam stripping
[11] = Exp #9: 1 g, 30 min, water 180 ml, reactor/steam 130/132 C
[12] = Exp #18: 3 g, 30 min, water 165 ml, reactor/steam 95/100-112 C
[13] = Exp #20: 10 g, 30 min, water 85 ml, reactor/steam 80/101 C

Structure (SMILES): CC(/C=N/NC(=N)N)=N\NC(=N)N [MGBIG-C, methylglyoxal-bis(iminoguanidine) (MGBIG) carbonate]
- supernatant solution CO2 content ([1]; Exp #2, 5 g, steam, after cooling to room temperature): 0.024 mol CO2/L
- removal efficiency ([1]; Exp #2, 5 g, steam, based on the carbon amount in the precipitated solid): 99.5%
- Liquid Supernatant (molCO2) [1, 5]: 0.024/ molCO2
- Liquid [% C] Precipitation [Avg % C, n = 2] [1, 5]: 0.018±0.005 % C and 0.02 % C
- Liquid Supernatant (molCO2) [1, 6]: 0.029/ molCO2
- Liquid [% C] Precipitation [Avg % C, n = 2] [1, 6]: 0.19 % C
- Liquid Supernatant (molCO2) [1, 7]: 0.023 molCO2
- Liquid [% C] Precipitation [Avg % C, n = 2] [1, 7]: 0.28 % C
- Solid (Avg % C, n = 2) [1, 7]: 0.22 % C
- Liquid Supernatant (molCO2) [1, 8]: 0.032 molCO2
- Liquid [% C] Precipitation [Avg % C, n = 2] [1, 8]: 2.43 % C
- Liquid Supernatant (molCO2) [1, 9]: 0.025/ molCO2
- Liquid [% C] Precipitation [Avg % C, n = 2] [1, 9]: 2.73 % C
- mass loss after full regeneration [1]: ~34%
- regeneration rate, direct steam vs conductive heating [1]: at least 3 times
- removal efficiency ([2]; 5 g, without steam injection, after 1 h of heating, reactor 100 C): 88.3%
- Solid (Avg % C, n = 2) ([2]; Exp #1: 5 g, 60 min, water 0 ml, reactor/steam 100/80 C, no steam injection): 0.492±0.128 % C and 0.49 % C
- Solid (Avg % C, n = 2) ([3]; Exp #0, Ref): 4.20±0.05 % C and 4.21 % C
- state in water at 50 C ([4]; 1 g in 5 mL of water, 50 C): remains in a solid state, indicating no regeneration
- temperature at which CO2 release was observed ([4]; solid heated in water in oven): ~78 °C

Structure (SMILES): CC(/C=N/NC(=N)N)=N\NC(=N)N [MGBIG, methylglyoxal-bis(iminoguanidine)]
- time for regeneration by direct steam [1]: 30 min
- estimated concentration of regenerated solution [1]: 1.9 M
- removal efficiency ([1]; small amount (3-6 g), minimal water consumption ~10 mL): 93%
- regeneration rate, direct steam vs conductive heating [1]: 3.5 times

Structure (SMILES): N=C(N)N/N=C/C=N/NC(=N)N [GBIG-C, GBIG carbonate]
- removal efficiency [1, 10]: 99%
- time for regeneration by direct steam [1]: 30 min
- Liquid Supernatant (molCO2) [1, 11]: 0.002/ molCO2
- Liquid [% C] Precipitation [Avg % C, n = 2] [1, 11]: 0.02 % C
- Solid (Avg % C, n = 2) [1, 11]: 0.03 % C
- Solid (Avg % C, n = 2) ([1]; Exp #10: 1 g, 20 min, water 120 ml, reactor/steam 115/118 C): 0.01 % C
- Solid (Avg % C, n = 2) ([1]; Exp #11: 1 g, 30 min, water 175 ml, reactor/steam 95-115/100-120 C, triplicate experiments): 0.06; % C and 0.04; % C and 0.06 % C
- Solid (Avg % C, n = 2) ([1]; Exp #12: 3 g, 30 min, water 175 ml, reactor/steam 95/100-112 C): 0.03 % C
- Solid (Avg % C, n = 2) ([1]; Exp #13: 5 g, 30 min, water 175 ml, reactor/steam 95/100-106 C): 0.10 % C
- Solid (Avg % C, n = 2) ([1]; Exp #14: 10 g, 30 min, water 175 ml, reactor/steam 95/100-109 C): 0.08 % C
- Solid (Avg % C, n = 2) ([1]; Exp #16: 3 g, 30 min, water 10 ml, reactor/steam 95/72-103 C): 0.06 % C
- Solid (Avg % C, n = 2) ([1]; Exp #17: 3 g, 30 min, water 85 ml, reactor/steam 95/98-118 C): 0.06 % C
- Liquid [% C] Precipitation [Avg % C, n = 2] [1, 12]: 0.02 % C
- Solid (Avg % C, n = 2) [1, 12]: 0.04 % C
- Solid (Avg % C, n = 2) ([1]; Exp #19: 10 g, 30 min, water 10 ml, reactor/steam 80/84 C): 4.22 % C
- supernatant solution CO2 content ([1]; Exp #20, 10 g, steam, after cooling): 0.019 mol CO2/L
- Liquid Supernatant (molCO2) [1, 13]: 0.02 molCO2
- Liquid [% C] Precipitation [Avg % C, n = 2] [1, 13]: 0.010±0.001 % C and 0.01 % C
- Solid (Avg % C, n = 2) [1, 13]: 0.08±0.008 % C and 0.07 % C
- mass loss after full regeneration [1]: 40%
- regeneration rate, direct steam vs conductive heating [1]: 4.5 times
- time for full regeneration by conductive heating ([2]; 130 C, oven): 140 min
- time for full regeneration by conductive heating ([2]; 130 C, oven, listed as GBIG carbonate): 135 min
- Solid (Avg % C, n = 2) ([2]; Exp #8: 1 g, 30 min, oven, 95 C): 3.23; % C
- Solid (Avg % C, n = 2) ([2]; Exp #8: 1 g, 30 min, oven, 105 C): 2.21; % C
- Solid (Avg % C, n = 2) ([2]; Exp #8: 1 g, 30 min, oven, 115 C): 1.91; % C
- Solid (Avg % C, n = 2) ([2]; Exp #8: 1 g, 30 min, oven, 130 C): 1.79 % C
- Solid (Avg % C, n = 2) ([2]; Exp #15: 3 g, 30 min, water 0 ml, reactor/steam 95/64-78 C): 1.86 % C
- Solid (Avg % C, n = 2) ([2]; Exp #21: 10 g, 135 min, oven, 130 C): 0.04 % C
- Solid (Avg % C, n = 2) ([3]; Exp #7, Ref): 6.25±0.98 % C and 6.25 % C

Structure (SMILES): N=C(N)NN=CC=NNC(=N)N [GBIG, glyoxal-bis(iminoguanidine)]
- removal efficiency [1, 10]: 99%
- estimated concentration of regenerated solution [1]: 1.7 M

“And” between values parts separate entries of the source, which are not always exact repeats. Identical values can stand only once.
